# Laboratory results taken from publication PMC5629014, “Assessment of sesquiterpene lactones isolated from Mikania plants species for their potential efficacy against Trypanosoma cruzi and Leishmania sp” (PLoS Neglected Tropical Diseases, 2017).
# Key:
# T. cruzi amastigotes = assay: Inhibition of intracellular amastigotes, β-galactosidase transfected parasites in Raw 264.7 cells (CPRG); type: cell-based, Trypanosoma cruzi
# Description: (§1) Trypanosoma cruzi epimastigotes (RA strain) were grown in a biphasic medium. Cultures were routinely maintained by weekly passages at 28°C. T. cruzi bloodstream trypomastigotes (RA strain) and the recombinant Tulahuen strain expressing β-galactosidase (Tul-β-Gal) were obtained from infected CF1 mice by cardiac puncture at the peak of parasitemia on day 15 post-infection. Trypomastigotes were routinely maintained by infecting 21-day-old CF1 mice.
# The effect of each compound on intracellular forms of T. cruzi was assayed using β-galactosidase transfected parasites. Briefly, 96-well plates were seeded with Raw 264.7 cells at 5x10^3 per well in […] of culture medium and incubated for 24 h at 37 °C in a 5% CO2 atmosphere. Cells were washed and infected with transfected blood trypomastigotes expressing β-galactosidase at a parasite/cell ratio of 10:1. After 12 h of co- culture, plates were washed twice with PBS to remove unbound parasites and each pure compound was added at different concentrations (0.001–50 μg/mL) in 150 μL of fresh complete RPMI medium without phenol red (Gibco, Rockville, MD). Controls included infected untreated cells (100% infection control) and uninfected cells (0% infection control). The assay was developed 5 days later by the addition of chlorophenol red-β-D-galactopyranoside (CPRG) (100 mM) and 1% Nonidet P40. Plates were then incubated for 4–6 h at 37 °C and the absorbance was measured at 595 nm in a microplate reader (Bio-Rad Laboratories, Hercules, CA). The percentage inhibition was calculated as 100–{[(absorbance of treated infected cells)/(absorbance of untreated infected cells) x 100} and the IC50 value was estimated. Benznidazole was used as positive control.
# [1] = test system: Leishmania braziliensis promastigotes (MHOM/BR/75/M2903 strain); assay: Growth inhibition of Leishmania braziliensis promastigotes, MTT method; type: cell-based; conditions: SI = CC50/IC50, CC50 on THP1
# Description: Leishmania braziliensis promastigotes (MHOM/BR/75/M2903 strain) were grown in liver infusion tryptose medium LIT, which was prepared as follows: 5 g/L liver infusion (Sigma 2023-072K1066), 5 g/L tryptose (Britania), 2 g/L glucose (Sigma), 68 mM NaCl, 5.4 mM KCl, 22 mM HPO4Na2, supplemented with 20 mg/L hemin (Sigma) and 10% (vol/vol) fetal calf serum (FCS) (Internegocios). Culture maintenance was performed by weekly passages at 26°C.
# The growth inhibition of Leishmania braziliensis promastigotes was evaluated by the MTT method. Parasites (5x10^6) were settled at a final volume of 150 μL in a flat-bottom 96-well microplate and cultured at 37°C in a 5% CO2 atmosphere in the absence or presence of increasing concentrations of the pure compounds. After 72 h, 3-(4,5- dimethylthiazol-2-yl)-2,5-diphenyltetrazolium bromide (MTT) was added at a final concentration of 1.5 mg/mL. Plates were incubated for 2 h at 37°C. The purple formazan crystals formed were completely dissolved by adding 150 μL of ethanol and the absorbance was read at 595 nm in a microplate reader. The inhibition percentage was calculated as {100 − [(DO595nm of treated parasites/ DO595nm of untreated parasites) × 100]}. Compounds were tested at 0–50 μg/mL. Amphotericin B was used as positive control.
# [2] = test system: T. cruzi bloodstream trypomastigotes; assay: Trypanocidal effect on bloodstream trypomastigotes, live parasite count in Neubauer chamber; type: cell-based, Trypanosoma cruzi; conditions: SI = CC50/IC50, CC50 on THP1
# Description: as §1
# The trypanocidal effect of the purified compounds was also tested on bloodstream trypomastigotes. Briefly, mouse blood containing trypomastigotes was diluted in complete RPMI -1640 Medium (Sigma-Aldrich R6504- Batch 029K83102) with 10% (vol/vol) fetal calf serum (FCS) (Internegocios) to adjust the parasite concentration to 3 × 10^5/mL. Parasites were seeded in duplicate in a 96-well microplate in the presence of each compound (0–50 μg/mL) or controls and incubated at 4 °C for 24 h. The number of remaining living parasites in each sample was determined in 5 μL of cell suspension diluted 1/5 in lysis buffer (0.75% NH4Cl, 0.2% Tris, pH 7.2) and counted in a Neubauer chamber. Benznidazole was used as positive control.
Structure (SMILES),"SI T. cruzi amastigotes (T. cruzi amastigotes; SI = CC50/IC50, CC50 on THP1)",SI L. braziliensis promastigotes [1],SI T. cruzi trypomastigotes [2],SI T. cruzi trypomastigotes ([2]; listed as Dihydromikanolide),SI T. cruzi amastigotes (T. cruzi amastigotes; ratio CC50 / IC50),SI T. cruzi trypomastigotes ([2]; listed as Mikanolide)
C=C1C(=O)OC2CC3(C)OC3CCC3=CC(OC3=O)C12 (centres unmarked) [deoxymikanolide],12.5,6.9,54,,,
C[C@H]1C(=O)O[C@H]2C[C@]3(C)O[C@H]3[C@@H]3O[C@@H]3C3=C[C@@H](OC3=O)[C@@H]21 [dihydromikanolide],1.52,0.2,50,49.9,,
C=C1C(=O)OC2CC3(C)OC3C3OC3C3=CC(OC3=O)C12 (centres unmarked) [mikanolide],,4.4,10.66,,4.96,10.7
C=C1C(=O)OC2CC3(C)OC3CC(OC(C)=O)C3=CC(OC3=O)C12 (centres unmarked) [scandenolide],14.2,3.4,12.6,,,
